At least one structure is not confirmed: it was looked up by name or label, or the drawing left a doubt.
System: rat NeuroD1, GluR2, NFH and GAP43 promoters
Experiment: In vitro rodent gene reporter assay in rNSC
Type: cell-based
Settings: 2 days incubation
Excerpt: Briefly, cultured rodent neural stem cells (rNSC) were transfected by electroporation with a vectors containing promoters specific for the rat NeuroD1, GluR2, NFH and GAP43 genes linked to the fluorescent reporter protein DsRed. All gene reporter constructs were cloned in the same lentiviral vector backbone, and mixed with Nucleofactor solution for electroporation. A GFP vector control was used in parallel to visualize effectiveness of electroporation. Transfected rNSCs were then suspended in test media containing varying concentrations of the HDac inhibitors trichostatin A, valproic acid, MS-275 or apicidin, and a mixture of 0.5 μg renilla luciferase and 5 μg promoter-specific […] luciferase. The cells were incubated in 5% CO2 at 37° C. for 2 days, and then lysed, whereupon the cell extracts were read on a Tecan Genios Pro reader to detect the promoter-specific activation of the reporter constructs.

CCC(=O)CCCCC[C@@H]1NC(=O)[C@H]2CCCCN2C(=O)[C@H]([C@@H](C)CC)NC(=O)[C@H](Cc2cn(OC)c3ccccc23)NC1=O [apicidin]
neurogenic activity, activation of the rat NeuroD1, GluR2, NFH and GAP43 promoters: neurogenic

Reference: US20070078083A1, “MODULATION OF NEUORGENESIS BY HDac INHIBITION” (BrainCells, Inc., priority 2005, published 2007)
